According to article PMC9646525, “Cryo-EM structure of the SEA complex” (Nature, 2022):
Read-outs that look alike come from different tables or passages of the source. These are yes or no findings as the source states them, for the method shown. In cells and extracts the contact can be indirect. Some entries that bind do so weakly or less than the wild type.

By UniProt entry, the sequences of proteins in these tests, tags left out. Where a name states a change or a piece, a line headed by the entry shows the natural chain unless it says otherwise.
UniProt P47170, whole entry, looked up, stated change not applied: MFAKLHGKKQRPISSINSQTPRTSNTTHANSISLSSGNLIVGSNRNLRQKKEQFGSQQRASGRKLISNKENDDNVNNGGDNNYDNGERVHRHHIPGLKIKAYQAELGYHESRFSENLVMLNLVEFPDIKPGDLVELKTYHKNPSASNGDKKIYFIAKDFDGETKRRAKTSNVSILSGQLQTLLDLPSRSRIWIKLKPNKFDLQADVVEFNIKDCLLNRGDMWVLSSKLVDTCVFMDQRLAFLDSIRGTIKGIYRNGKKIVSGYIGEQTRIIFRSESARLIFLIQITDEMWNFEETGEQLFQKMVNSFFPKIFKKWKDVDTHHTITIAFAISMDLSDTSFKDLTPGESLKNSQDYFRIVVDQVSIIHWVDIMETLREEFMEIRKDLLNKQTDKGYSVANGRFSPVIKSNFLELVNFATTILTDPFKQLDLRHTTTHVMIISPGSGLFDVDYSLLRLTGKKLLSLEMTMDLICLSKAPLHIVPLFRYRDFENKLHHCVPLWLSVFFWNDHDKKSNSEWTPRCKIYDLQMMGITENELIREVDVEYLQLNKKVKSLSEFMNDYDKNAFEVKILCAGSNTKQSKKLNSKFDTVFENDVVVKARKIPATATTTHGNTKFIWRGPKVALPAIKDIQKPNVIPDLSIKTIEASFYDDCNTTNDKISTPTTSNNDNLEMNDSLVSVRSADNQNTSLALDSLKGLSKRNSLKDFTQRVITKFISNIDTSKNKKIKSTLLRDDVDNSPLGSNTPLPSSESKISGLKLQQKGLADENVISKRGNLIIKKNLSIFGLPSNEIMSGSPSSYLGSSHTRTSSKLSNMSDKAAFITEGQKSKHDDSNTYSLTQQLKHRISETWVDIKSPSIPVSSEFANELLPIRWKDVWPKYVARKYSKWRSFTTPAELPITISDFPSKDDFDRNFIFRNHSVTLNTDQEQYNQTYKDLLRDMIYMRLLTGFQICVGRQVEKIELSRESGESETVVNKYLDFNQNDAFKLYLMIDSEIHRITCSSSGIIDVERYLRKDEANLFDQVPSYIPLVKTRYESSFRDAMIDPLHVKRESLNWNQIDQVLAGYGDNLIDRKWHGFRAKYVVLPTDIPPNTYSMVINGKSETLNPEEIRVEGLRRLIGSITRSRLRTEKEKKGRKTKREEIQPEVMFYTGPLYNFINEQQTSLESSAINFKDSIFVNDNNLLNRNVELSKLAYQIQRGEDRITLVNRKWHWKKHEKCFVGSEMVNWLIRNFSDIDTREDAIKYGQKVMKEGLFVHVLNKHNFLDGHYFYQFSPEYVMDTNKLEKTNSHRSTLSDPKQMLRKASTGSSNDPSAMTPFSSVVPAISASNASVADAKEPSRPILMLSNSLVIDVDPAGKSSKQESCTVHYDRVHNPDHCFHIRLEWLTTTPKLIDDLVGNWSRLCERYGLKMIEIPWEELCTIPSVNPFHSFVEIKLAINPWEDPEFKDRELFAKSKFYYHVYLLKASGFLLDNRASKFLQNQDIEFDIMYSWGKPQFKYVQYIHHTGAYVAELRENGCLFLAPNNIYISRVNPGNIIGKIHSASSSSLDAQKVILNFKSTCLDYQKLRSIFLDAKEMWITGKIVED

T1: Sea4-TAP (S. cerevisiae (endogenous in yeast cells)) (UniProt P38164)
T1 sequence: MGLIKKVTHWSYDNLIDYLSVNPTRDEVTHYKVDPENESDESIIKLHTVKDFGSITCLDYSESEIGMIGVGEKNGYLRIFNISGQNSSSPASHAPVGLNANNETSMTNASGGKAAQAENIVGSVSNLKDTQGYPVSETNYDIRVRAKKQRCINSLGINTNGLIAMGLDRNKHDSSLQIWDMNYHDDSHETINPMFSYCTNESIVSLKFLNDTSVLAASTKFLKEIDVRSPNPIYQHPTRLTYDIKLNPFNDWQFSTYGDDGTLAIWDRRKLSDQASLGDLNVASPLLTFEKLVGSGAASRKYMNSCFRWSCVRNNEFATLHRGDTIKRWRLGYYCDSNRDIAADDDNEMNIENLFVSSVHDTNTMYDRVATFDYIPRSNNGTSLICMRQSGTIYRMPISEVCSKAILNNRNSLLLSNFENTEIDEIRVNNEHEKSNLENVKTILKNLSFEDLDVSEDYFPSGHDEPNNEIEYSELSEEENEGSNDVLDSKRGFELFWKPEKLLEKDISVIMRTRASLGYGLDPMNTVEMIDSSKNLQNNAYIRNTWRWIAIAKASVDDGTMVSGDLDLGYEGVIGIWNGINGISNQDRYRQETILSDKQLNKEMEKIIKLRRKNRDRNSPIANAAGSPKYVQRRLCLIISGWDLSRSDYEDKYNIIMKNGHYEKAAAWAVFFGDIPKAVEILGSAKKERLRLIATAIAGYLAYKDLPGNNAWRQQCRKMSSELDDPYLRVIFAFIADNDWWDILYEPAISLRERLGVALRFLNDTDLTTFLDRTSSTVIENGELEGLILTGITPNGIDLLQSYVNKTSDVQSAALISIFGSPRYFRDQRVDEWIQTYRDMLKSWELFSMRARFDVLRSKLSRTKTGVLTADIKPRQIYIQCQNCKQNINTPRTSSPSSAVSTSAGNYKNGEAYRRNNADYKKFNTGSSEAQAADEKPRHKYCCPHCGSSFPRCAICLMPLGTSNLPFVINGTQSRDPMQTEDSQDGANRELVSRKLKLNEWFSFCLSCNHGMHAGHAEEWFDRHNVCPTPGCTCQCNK

B1: Sec13 (natural protein, UniProt Q04491 1-297, looked up)
chain: MVVIANAHNELIHDAVLDYYGKRLATCSSDKTIKIFEVEGETHKLIDTLTGHEGPVWRVDWAHPKFGTILASCSYDGKVLIWKEENGRWSQIAVHAVHSASVNSVQWAPHEYGPLLLVASSDGKVSVVEFKENGTTSPIIIDAHAIGVNSASWAPATIEEDGEHNGTKESRKFVTGGADNLVKIWKYNSDAQTYVLESTLEGHSDWVRDVAWSPTVLLRSYLASVSQDRTCIIWTQDNEQGPWKKTLLKEEKFPDVLWRASWSLSGNVLALSGGDNKVTLWKENLEGKWEPAGEVHQ
notes: Sec13, S. cerevisiae, endogenous subunit of the SEAC (SEACAT, core); Native protein of the purified complex; two copies in the SEAC; source: endogenous, yeast cells expressing Sea4-TAP; in lysate and co-purified with Sea4-TAP (IgG Dynabeads, TEV elution)

Assays:
[1] = biological target: T1, Sea4-TAP (S. cerevisiae (endogenous in yeast cells)); assay: co-IP; Sea4-TAP captured from cleared yeast lysate on IgG-coupled Dynabeads, washed, eluted with TEV protease, Coomassie-stained SDS-PAGE; 4 °C, 20 mM HEPES-NaOH pH 7.4, 300 mM NaCl, 5 mM CHAPS, 10% glycerol; wild-type, ΔNpr3, Npr2^R84A and Sea1^R943A strains
[2] = biological target: T1, Sea4-TAP (S. cerevisiae (endogenous in yeast cells)); assay: as above; remark: listed apart in the source

Molecule	binding [1]	binding [2]
Sea1^R943A (from UniProt P47170 1-1584)	no binding	
B1		binds
